Consider 8 molecules from publication PMC12164954.

Results are given in words; binding and its absence hold for the method and conditions named. For part of these data: Binding calls can cover weak binding; strength is not graded here. Where a sequence is shown, tags or fusion partners need not be part of it.

What all share (assay): two-hybrid; SnRK2s and ADA2b fused with activation domain (AD, pGADT7), CLC2 fused with binding domain (BD, pGBKT7); growth on SD-L-W-H medium containing 30 mM 3-AT
The target in assay [1] is clathrin light chain 2 (CLC2) fused with binding domain (BD) (Arabidopsis thaliana).
Assay [2] concerns the target CLC3 (Arabidopsis thaliana).
For assay [3], the target named is CLC1 (Arabidopsis thaliana).

B1: SMC5 (protein, UniProt Q9LFS8 1-1053)
chain: MSERRAKRPKISRGEDDFLPGNIIEIELHNFMTFNHLVCKPGSRLNLVIGPNGSGKSSLVCAIALCLGGEPQLLGRATSVGAYVKRGEDSGYVKISLRGNTREENLTIFRKIDTRNKSEWMFNGSTVSKKDIVEIIQKFNIQVNNLTQFLPQDRVCEFAKLTPVQLLEETEKAVGDPQLPVHHRALVEKSRDLKQLERAVAKNGETLNQLKALVDEQEKDVERVRQRELFLTKVDSMKKKLPWLKYDMKKAEYMDAKKRMKEAEKKLDEAAKNLNSMKEPIEKQKKEKAETDSKCKKVKNLMDANGRNRCHLLEKEDEADARVVATYKELEELKKQEEHRQERILKATEDLVAAERELQNLPVYERPVAKLEELSSQVTELHHSINGKKNQKEDNEKLLSQKRYTLRQCVDKLKDMENANNKLLKALANSGADRIFDAYQWVQQNRHEFKREVYGPVLVEVNVPNRENACFLEGHVSFYIWKSFITQDPEDRDLLVKNLKRFDVPVLNYVGNSGNQKAPFHISDQMRSLGIHARLDQIFDAPDAVKEVLNSQFGLEDSYIGSKITDQRAEEVYKLGIKDFWTPDNHYRWSSSRYGGHSSASVDSVYQSRLLLCGVDVGELEKLRSRKEELEDSILFMEETHKSLQTEQRRLEEEAAKLHKEREEIVNVSYLEKKKRRELESRYQQRKTKLESLEQEEDMDASVAKLIDQASRANADRYTYAINLKKLLVEAVAHKWSYAEKHMASIELERKIRESEINIKQYEKTAQQLSLAVEYCKKEVEGKQQRLATAKRDAESVATITPELKKEFMEMPTTVEELEAAIQDNLSQANSILFINENILQEYEHRQSQIYTISTKLETDKRDLSICMKEIDSLKEKWLPTLRQLVGQINETFSHNFQEMAVAGEVSLDERDTDFDQYGIHIKVKFRESGQLQVLSSHHQSGGERSVSTILYLVSLQDLTNCPFRVVDEINQGMDPINERKMFQQLVRAASQPNTPQCFLLTPKLLPELEYSEACSILNIMNGPYIAEPSKVWSLGDSWGSLNRRRTEASQCS
In the case of B1, the binding result in assay [1] is listed as “no binding”.

B2: CDC5 (protein, UniProt P92948 1-844)
chain: MRIMIKGGVWKNTEDEILKAAVMKYGKNQWARISSLLVRKSAKQCKARWYEWLDPSIKKTEWTREEDEKLLHLAKLLPTQWRTIAPIVGRTPSQCLERYEKLLDAACTKDENYDAADDPRKLRPGEIDPNPEAKPARPDPVDMDEDEKEMLSEARARLANTRGKKAKRKAREKQLEEARRLASLQKRRELKAAGIDGRHRKRKRKGIDYNAEIPFEKRAPAGFYDTADEDRPADQVKFPTTIEELEGKRRADVEAHLRKQDVARNKIAQRQDAPAAILQANKLNDPEVVRKRSKLMLPPPQISDHELEEIAKMGYASDLLAENEELTEGSAATRALLANYSQTPRQGMTPMRTPQRTPAGKGDAIMMEAENLARLRDSQTPLLGGENPELHPSDFTGVTPRKKEIQTPNPMLTPSMTPGGAGLTPRIGLTPSRDGSSFSMTPKGTPFRDELHINEDMDMHESAKLERQRREEARRSLRSGLTGLPQPKNEYQIVAQPPPEESEEPEEKIEEDMSDRIAREKAEEEARQQALLKKRSKVLQRDLPRPPAASLAVIRNSLLSADGDKSSVVPPTPIEVADKMVREELLQLLEHDNAKYPLDDKAEKKKGAKNRTNRSASQVLAIDDFDENELQEADKMIKEEGKFLCVSMGHENKTLDDFVEAHNTCVNDLMYFPTRSAYELSSVAGNADKVAAFQEEMENVRKKMEEDEKKAEHMKAKYKTYTKGHERRAETVWTQIEATLKQAEIGGTEVECFKALKRQEEMAASFRKKNLQEEVIKQKETESKLQTRYGNMLAMVEKAEEIMVGFRAQALKKQEDVEDSHKLKEAKLATGEEEDIAIAMEASA
For B2, the binding result in assay [1] is on record as “no binding”.

B3: SnRK2.2 fused with activation domain (AD) (enzyme, UniProt Q39192 1-362)
chain: MDPATNSPIMPIDLPIMHDSDRYDFVKDIGSGNFGVARLMTDRVTKELVAVKYIERGEKIDENVQREIINHRSLRHPNIVRFKEVILTPSHLAIVMEYAAGGELYERICNAGRFSEDEARFFFQQLISGVSYCHAMQICHRDLKLENTLLDGSPAPRLKICDFGYSKSSVLHSQPKSTVGTPAYIAPEILLRQEYDGKLADVWSCGVTLYVMLVGAYPFEDPQEPRDYRKTIQRILSVTYSIPEDLHLSPECRHLISRIFVADPATRITIPEITSDKWFLKNLPGDLMDENRMGSQFQEPEQPMQSLDTIMQIISEATIPTVRNRCLDDFMADNLDLDDDMDDFDSESEIDVDSSGEIVYAL
On to B3, for which the binding result in assay [1] is “binds”; in assay [2], “no binding”; in assay [3], “no binding”.

B4: ADA2b fused with activation domain (AD) (protein, UniProt Q9ATB4 1-487)
chain: MGRSRGNFQNFEDPTQRTRKKKNAANVENFESTSLVPGAEGGGKYNCDYCQKDITGKIRIKCAVCPDFDLCIECMSVGAEITPHKCDHPYRVMGNLTFPLICPDWSADDEMLLLEGLEIYGLGNWAEVAEHVGTKSKEQCLEHYRNIYLNSPFFPLPDMSHVAGKNRKELQAMAKGRIDDKKAEQNMKEEYPFSPPKVKVEDTQKESFVDRSFGGKKPVSTSVNNSLVELSNYNQKREEFDPEYDNDAEQLLAEMEFKENDTPEEHELKLRVLRIYSKRLDERKRRKEFIIERNLLYPNPFEKDLSQEEKVQCRRLDVFMRFHSKEEHDELLRNVVSEYRMVKRLKDLKEAQVAGCRSTAEAERYLGRKRKRENEEGMNRGKESGQFGQIAGEMGSRPPVQASSSYVNDLDLIGFTESQLLSESEKRLCSEVKLVPPVYLQMQQVMSHEIFKGNVTKKSDAYSLFKIDPTKVDRVYDMLVKKGIAQL
For B4, in assay [1], the binding entry is listed as “binds”.

B5: SOG1 (protein, UniProt Q6NQK2 1-449)
chain: MAGRSWLIDSNRIATKIMSASASSDPRQVVWKSNPSRHCPKCQHVIDNSDVVDDWPGLPRGVKFDPSDPEIIWHLLAKSGLSGLSSHPFIDEFIPTVNQDDGICYTHPKNLPGVKSDGTVSHFFHKAIKAYSTGTRKRRKIHDDDFGDVRWHKTGRTKPVVLDGVQRGCKKIMVLYGGKAVKTNWVMHQYHLGIEEDEKEGDYVVSKIFYQQPQQLVVKRGDKAEQEVSEDIFAAVTPTADPVTPKLATPEPRNAVRICSDSHIASDYVTPSDYVSAHEVSLAETSEVMCMEDEVQSIQPNHERPSSGPELEHGLENGAKEMLDDKEEQEKDRDNENQGEEDPTWFDSGSQFILNSQQLVEALSLCDDLLGSQDREENTNSGSLKDKQPCIADYAHLGPEDFKRDLEECQKIVLDPSNIELDTPPEFRLSQLEFGSQDSFLAWGTGKTD
With B5, the binding result in assay [1] is reported as “no binding”.

B6: IDN2 (protein, UniProt Q8VZ79 1-647)
chain: MGSTVILSSDDEDSDISESEMDEYGDKMYLNLKGGKLKVRLSPQAFICPYCPNKKKTSFQYKDLLQHASGVGNSNSDKRSAKEKASHLALVKYLQQDLADSASEAEPSSKRQKNGNPIQDCDHDEKLVYPWKGIVVNIPTTKAQDGRSAGESGSKLRDEYILRGFNPTRVRPLWNYLGHSGTAIVEFNKDWNGLHNGLLFDKAYTVDGHGKKDWLKKDGPKLGLYGWIARADDYNGNNIIGENLRKTGDLKTIAELTEEEARKQELLVQNLRQLVEEKKKDMKEIEELCSVKSEELNQLMEEKEKNQQKHYRELNAIQERTMSHIQKIVDDHEKLKRLLESERKKLEIKCNELAKREVHNGTERMKLSEDLEQNASKNSSLELAAMEQQKADEEVKKLAEDQRRQKEELHEKIIRLERQRDQKQAIELEVEQLKGQLNVMKHMASDGDAEVVKEVDIIFKDLGEKEAQLADLDKFNQTLILRERRTNDELQEAHKELVNIMKEWNTNIGVKRMGELVTKPFVDAMQQKYCQQDVEDRAVEVLQLWEHYLKDSDWHPFKRVKLENEDREVEVIDDRDEKLRELKADLGDGPYNAVTKALLEINEYNPSGRYITTELWNFKADKKATLEEGVTCLLDQWEKAKRKRGMA
Take B6: the binding entry in assay [1] is given as “no binding”.

B7: RAD51 (protein, UniProt P94102 1-342)
chain: MTTMEQRRNQNAVQQQDDEETQHGPFPVEQLQAAGIASVDVKKLRDAGLCTVEGVAYTPRKDLLQIKGISDAKVDKIVEAASKLVPLGFTSASQLHAQRQEIIQITSGSRELDKVLEGGIETGSITELYGEFRSGKTQLCHTLCVTCQLPMDQGGGEGKAMYIDAEGTFRPQRLLQIADRFGLNGADVLENVAYARAYNTDHQSRLLLEAASMMIETRFALLIVDSATALYRTDFSGRGELSARQMHLAKFLRSLQKLADEFGVAVVITNQVVAQVDGSALFAGPQFKPIGGNIMAHATTTRLALRKGRAEERICKVISSPCLPEAEARFQISTEGVTDCKD
Regarding B7, in assay [1], the binding entry is listed as “no binding”.

B8: SnRK2.3 fused with activation domain (AD) (enzyme, UniProt Q39193 1-361)
chain: MDRAPVTTGPLDMPIMHDSDRYDFVKDIGSGNFGVARLMRDKLTKELVAVKYIERGDKIDENVQREIINHRSLRHPNIVRFKEVILTPTHLAIIMEYASGGELYERICNAGRFSEDEARFFFQQLLSGVSYCHSMQICHRDLKLENTLLDGSPAPRLKICDFGYSKSSVLHSQPKSTVGTPAYIAPEVLLRQEYDGKIADVWSCGVTLYVMLVGAYPFEDPEEPRDYRKTIQRILSVKYSIPDDIRISPECCHLISRIFVADPATRISIPEIKTHSWFLKNLPADLMNESNTGSQFQEPEQPMQSLDTIMQIISEATIPAVRNRCLDDFMTDNLDLDDDMDDFDSESEIDIDSSGEIVYAL
As to B8, the binding result is recorded as “binds” in assay [1], “no binding” in assay [2] and “no binding” in assay [3].
